The list is a part of this screen's results and no random one: it is rich in T/C values a quarter to a half above the control, in often repeated tests (any T/C) and in doses without a T/C. Other doses and runs of a compound stand elsewhere. T/C is the treated group as % of the vehicle group. Some doses have a count of surviving animals in place of a T/C: the source holds a T/C of zero for them, seemingly a mark for toxic or unscored doses. Some doses without a T/C left all or most animals alive at the check, yet need not have been tolerated: the source hardly ever lists a survival T/C far under the control, and the zero likely stands for such cases as well. Counts of survivors are from the toxicity check (mostly the fifth day) where no day follows; animals may have died later. Schedule codes are those of the source, taken here to give the interval after Q, in days (D) or hours (H), and the number of doses after X. Some doses were run more than once; the results are listed from low to high. For survival time, this PubChem deposit counts one and a half times the control or more as active, and values a quarter to a half above the control carry no call in these data; other NCI protocols may use other cut-offs.
Test system: P388 leukemia ip, CD2F1 mice, survival T/C
Experiment: NCI In Vivo Anticancer Drug Screen. Data for tumor model P388 Leukemia (intraperitoneal) in CD2F1 (CDF1) mice
Conditions: T/C endpoint: median survival time, higher T/C = longer survival
[1] = dose: 200.0 mg/kg/injection, schedule: Q01DX005 (ip), vehicle: saline with Tween-80
[2] = dose: 100.0 mg/kg/injection, schedule: Q01DX009 (ip), vehicle: saline with Tween-80
[3] = dose: 200.0 mg/kg/injection, schedule: Q01DX009 (ip), vehicle: saline with Tween-80
[4] = dose: 50.0 mg/kg/injection, schedule: Q01DX005 (ip), vehicle: saline
[5] = dose: 200.0 mg/kg/injection, schedule: Q01DX005 (ip), vehicle: saline
[6] = dose: 100.0 mg/kg/injection, schedule: Q01DX009 (ip), vehicle: Klucel (hydroxypropylcellulose) (HPC)
[7] = dose: 200.0 mg/kg/injection, schedule: Q01DX009 (ip), vehicle: Klucel (hydroxypropylcellulose) (HPC)

C=C(CN(C)C)C(=O)c1ccccc1C
survivor count (dose: 12.5 mg/kg/injection, schedule: Q01DX005 (ip), vehicle: suspension in saline): 1 of 6
survivor count (dose: 25.0 mg/kg/injection, schedule: Q01DX005 (ip), vehicle: suspension in saline): 0 of 6
survivor count (dose: 60.0 mg/kg/injection, schedule: Q01DX005 (ip), vehicle: saline): 0 of 6
survivor count (dose: 120.0 mg/kg/injection, schedule: Q01DX005 (ip), vehicle: saline): 0 of 6
survivor count (dose: 240.0 mg/kg/injection, schedule: Q01DX005 (ip), vehicle: saline): 0 of 6

CC(=O)OCc1c(Cl)nc2sccn12
survivor count (dose: 400.0 mg/kg/injection, schedule: Q01DX001 (ip), vehicle: Klucel (hydroxypropylcellulose) (HPC)): 0 of 6

CSC(C)(C(=N)C#N)N(C)C (configuration not stated)
survivor count (dose: 100.0 mg/kg/injection, schedule: Q04DX003 (ip), vehicle: saline with Tween-80): 0 of 6
survivor count (dose: 200.0 mg/kg/injection, schedule: Q04DX003 (ip), vehicle: saline with Tween-80): 0 of 6
survivor count (dose: 400.0 mg/kg/injection, schedule: Q04DX003 (ip), vehicle: saline with Tween-80): 0 of 6

FC(F)(F)c1ccc2nc(Cl)[nH]c2c1
survivor count [1]: 0 of 6

COc1ccc2nc(C(=O)NC3COC(=O)C(C(C)(C)O)N(C)C(=O)CN(C)C(=O)CNC(=O)C4CCCNN4C(=O)C(NC(=O)c4nc5ccc(OC)cc5cc4O)COC(=O)C(C(C)(C)O)N(C)C(=O)CN(C)C(=O)CNC(=O)C4C(OC(C)=O)CC=NN4C3=O)c(O)cc2c1 (configuration not stated)
T/C (dose: 5.0 micrograms/kg/injection, schedule: Q01DX005 (ip), vehicle: DMSO): 130 % of control
T/C (dose: 10.0 micrograms/kg/injection, schedule: Q01DX005 (ip), vehicle: DMSO): 148 % of control
survivor count (dose: 80.0 micrograms/kg/injection, schedule: Q01DX005 (ip), vehicle: DMSO): 2 of 6
survivor count (dose: 160.0 micrograms/kg/injection, schedule: Q01DX005 (ip), vehicle: DMSO): 0 of 6

COc1ccc(C2CC(=O)N(CN3CCN(c4ccccc4)CC3)C(=O)C2)cc1
survivor count [2]: 6 of 6
survivor count [3]: 5 of 6

Nc1cccc(S(=O)(=O)Nc2c(N)[nH]c(=S)[nH]c2=O)c1
T/C (dose: 120.0 mg/kg/injection, schedule: Q01DX005 (ip), vehicle: Klucel (hydroxypropylcellulose) (HPC)): 142 % of control

CCn1c(O)c(N=O)c(=O)n(CC)c1=S
survivor count (dose: 200.0 mg/kg/injection, schedule: Q04DX002 (ip), vehicle: saline with Tween-80): 1 of 6

NNc1ncnc2c1ccn2C1OC(CO)C(O)C1O (configuration not stated)
T/C (dose: 16.5 mg/kg/injection, schedule: Q01DX009 (ip), vehicle: saline with Tween-80): 140 % of control
T/C (dose: 25.0 mg/kg/injection, schedule: Q01DX009 (ip), vehicle: saline with Tween-80): 130 and 131 % of control

CCN(CC)c1ccc(C(=N)c2ccc(N(CC)CC)cc2)cc1
survivor count (dose: 100.0 mg/kg/injection, schedule: Q01DX005 (ip), vehicle: Klucel (hydroxypropylcellulose) (HPC)): 0 of 5
survivor count (dose: 200.0 mg/kg/injection, schedule: Q01DX005 (ip), vehicle: Klucel (hydroxypropylcellulose) (HPC)): 0 of 5

Cc1c(O)c2c(c(O)c1Cc1cccc(CN)c1)C(=O)c1ccccc1C2=O
survivor count (dose: 3.13 mg/kg/injection, schedule: Q01DX009 (ip), vehicle: water): 6 of 6
survivor count (dose: 6.25 mg/kg/injection, schedule: Q01DX009 (ip), vehicle: water): 6 of 6
survivor count (dose: 12.5 mg/kg/injection, schedule: Q01DX009 (ip), vehicle: water): 6 of 6
survivor count (dose: 25.0 mg/kg/injection, schedule: Q01DX009 (ip), vehicle: water): 6 of 6
survivor count (dose: 50.0 mg/kg/injection, schedule: Q01DX009 (ip), vehicle: water): 6 of 6
survivor count (dose: 100.0 mg/kg/injection, schedule: Q01DX009 (ip), vehicle: water): 1 of 6
survivor count (dose: 200.0 mg/kg/injection, schedule: Q01DX009 (ip), vehicle: water): 0 of 6
survivor count (dose: 400.0 mg/kg/injection, schedule: Q01DX009 (ip), vehicle: water): 0 of 6

N#CC1OC1c1cccc[n+]1[O-] (configuration not stated)
survivor count (dose: 25.0 mg/kg/injection, schedule: Q01DX005 (ip), vehicle: saline with Tween-80): 0 of 6
survivor count (dose: 50.0 mg/kg/injection, schedule: Q01DX005 (ip), vehicle: saline with Tween-80): 0 of 6
survivor count [4]: 0 of 6
survivor count (dose: 100.0 mg/kg/injection, schedule: Q01DX005 (ip), vehicle: saline with Tween-80): 0 of 6
survivor count (dose: 100.0 mg/kg/injection, schedule: Q01DX005 (ip), vehicle: saline): 0 of 6
survivor count [1]: 0 of 6
survivor count [5]: 0 of 6

C=C(COC(=O)Nc1cc(Cl)ccc1C)C(=O)O
survivor count [6]: 3 of 6
survivor count [7]: 2 of 6

O=C(O)C(=O)O.O=N[O-].[Co+3].[NH-]CC[N-]CC[NH-]
survivor count [2]: 4 of 6

NCC(O)c1ccc(Nc2ccnc3cc(Cl)ccc23)cc1 (configuration not stated)
survivor count [5]: 0 of 5

Cc1cnc2ncn(Cc3c[nH]c(=O)[nH]c3=O)c(=O)c2c1
survivor count (dose: 100.0 mg/kg/injection, schedule: Q01DX001 (ip), vehicle: saline with Tween-80): 1 of 6
survivor count (dose: 200.0 mg/kg/injection, schedule: Q01DX001 (ip), vehicle: saline with Tween-80): 0 of 6
survivor count (dose: 400.0 mg/kg/injection, schedule: Q01DX001 (ip), vehicle: saline with Tween-80): 0 of 6

C1CNC(CCNCCSCCNCCC2=NCCN2)=N1
survivor count (dose: 100.0 mg/kg/injection, schedule: Q01DX009 (ip), vehicle: saline): 0 of 6
survivor count (dose: 200.0 mg/kg/injection, schedule: Q01DX009 (ip), vehicle: saline): 0 of 6

Clc1nc(C(Cl)Cl)nc2ccccc12
survivor count (dose: 240.0 mg/kg/injection, schedule: Q01DX005 (ip), vehicle: saline with Tween-80): 5 of 6

COc1cc2c(cc1OC)C(C)N1CCc3cc(OC)c(OC)cc3C1C2 (configuration not stated)
survivor count (dose: 6.25 mg/kg/injection, schedule: Q01DX009 (ip), vehicle: Klucel (hydroxypropylcellulose) (HPC)): 1 of 6 and 3 of 6
survivor count (dose: 12.5 mg/kg/injection, schedule: Q01DX009 (ip), vehicle: Klucel (hydroxypropylcellulose) (HPC)): 0 of 6
survivor count (dose: 25.0 mg/kg/injection, schedule: Q01DX009 (ip), vehicle: Klucel (hydroxypropylcellulose) (HPC)): 0 of 6
survivor count (dose: 50.0 mg/kg/injection, schedule: Q01DX009 (ip), vehicle: Klucel (hydroxypropylcellulose) (HPC)): 0 of 6
survivor count [6]: 0 of 6
survivor count [7]: 0 of 6

ClCCN1c2ccc3ccccc3c2Sc2ccc3ccccc3c21
survivor count [1]: 6 of 6

CCC(C)c1cnc(CC(C)C)c(=O)n1O (configuration not stated)
survivor count [2]: 3 of 6
survivor count [3]: 0 of 6
survivor count (dose: 400.0 mg/kg/injection, schedule: Q01DX009 (ip), vehicle: saline with Tween-80): 0 of 6

CC1=C(c2ccccc2)OC(c2ccccc2)=C[P+]1(c1ccccc1)c1ccccc1
survivor count (dose: 6.25 mg/kg/injection, schedule: Q01DX005 (ip), vehicle: saline): 2 of 5
survivor count (dose: 12.5 mg/kg/injection, schedule: Q01DX005 (ip), vehicle: saline): 0 of 5
survivor count (dose: 25.0 mg/kg/injection, schedule: Q01DX005 (ip), vehicle: saline): 0 of 5
survivor count [4]: 0 of 5

CC(=O)OC(C)(C)/C=C/C(=O)[C@](C)(O)[C@H]1[C@H](O)C[C@@]2(C)[C@@H]3CC=C4[C@@H](C[C@H](O)C(=O)C4(C)C)[C@]3(C)C(=O)C[C@]12C
survivor count (dose: 4.0 mg/kg/injection, schedule: Q01DX009 (ip), vehicle: saline with Tween-80): 4 of 6
